Results from paper PMC11057878.
Results are given in words; binding and its absence hold for the method and conditions named. Binding seen in cells or lysates may run through a third protein. Some results given as binding are weak or reduced against the parent protein; the word gives no strength.

Assays:
Assay in all cases: co-IP; HEK293T cells co-transfected with Skor and Lhx expression plasmids (pCS2+), lysed 24 h later in 10 mM Tris pH 7.4, 150 mM NaCl, 0.5% NP40; antibody (anti-HA, anti-Myc or anti-Flag) on Dynabeads protein G, 4°C for 2 h, five washes with lysis buffer; immunoblot
Lhx5 (zebrafish) = target: T1, Lhx5 (zebrafish) (UniProt P52889)
T1 sequence: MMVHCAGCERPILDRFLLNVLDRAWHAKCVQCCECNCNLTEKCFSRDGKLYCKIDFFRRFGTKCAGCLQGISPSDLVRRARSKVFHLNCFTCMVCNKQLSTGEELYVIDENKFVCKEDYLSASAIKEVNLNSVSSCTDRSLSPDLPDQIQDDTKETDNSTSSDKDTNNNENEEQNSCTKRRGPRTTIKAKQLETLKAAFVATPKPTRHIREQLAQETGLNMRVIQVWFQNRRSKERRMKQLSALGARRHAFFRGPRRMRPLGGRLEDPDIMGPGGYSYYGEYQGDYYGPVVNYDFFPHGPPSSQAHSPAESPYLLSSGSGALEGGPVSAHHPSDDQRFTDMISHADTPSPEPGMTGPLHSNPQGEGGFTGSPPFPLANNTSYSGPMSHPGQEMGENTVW

Lhx1a (zebrafish) = target: T2, Lhx1a (zebrafish) (UniProt Q90476)
T2 sequence: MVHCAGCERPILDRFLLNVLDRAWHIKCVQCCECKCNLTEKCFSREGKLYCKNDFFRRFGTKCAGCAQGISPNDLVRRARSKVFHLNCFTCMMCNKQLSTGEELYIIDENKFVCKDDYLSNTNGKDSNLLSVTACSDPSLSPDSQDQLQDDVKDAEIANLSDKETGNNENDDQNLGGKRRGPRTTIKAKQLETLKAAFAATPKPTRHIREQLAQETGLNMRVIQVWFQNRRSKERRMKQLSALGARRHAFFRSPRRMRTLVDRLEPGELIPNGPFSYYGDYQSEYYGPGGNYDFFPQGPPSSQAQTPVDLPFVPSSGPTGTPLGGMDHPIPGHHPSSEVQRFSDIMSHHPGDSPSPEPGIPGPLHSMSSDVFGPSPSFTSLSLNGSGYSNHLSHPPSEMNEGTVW

Lhx1b (zebrafish) = target: T3, Lhx1b (zebrafish) (UniProt O13106)
T3 sequence: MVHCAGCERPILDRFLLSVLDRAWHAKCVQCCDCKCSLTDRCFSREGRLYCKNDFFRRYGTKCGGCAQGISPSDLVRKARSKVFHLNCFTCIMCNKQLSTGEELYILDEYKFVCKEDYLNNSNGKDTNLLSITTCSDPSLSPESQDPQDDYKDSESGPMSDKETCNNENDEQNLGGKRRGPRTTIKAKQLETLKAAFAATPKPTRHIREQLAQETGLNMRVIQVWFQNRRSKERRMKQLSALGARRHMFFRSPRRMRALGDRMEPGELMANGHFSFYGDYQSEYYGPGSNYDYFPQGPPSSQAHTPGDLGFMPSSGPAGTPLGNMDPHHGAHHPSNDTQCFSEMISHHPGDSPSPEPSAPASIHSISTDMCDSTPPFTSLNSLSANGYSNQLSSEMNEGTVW

Measured: binding

B1: Skor1b (protein, UniProt Q1LXZ9 1-751)
chain: MESIPNQLPAGRDSSCSPNSKDLQSYSGPPLKPNQVSETSLYGIPIVSLVIDGQERLCLAQISNTLLKNYSYNEIHNRRVALGITCVQCTPVQLEILRRAGAMPISSRRCGMITKREAERLCKSFLGAHSPPKLPENFAFDVSHECAWGSRGNFIPARYNSSRAKCIKCSFCNMYFSPNKFIFHSHRTPESKYTQPDAANFNSWRRHLKLSDKNSSDDVIHAWEDVKAMFNGGSRKRTLPIGRSESSPSQPPRGQTQGEPSDVPHKTLRCEDDRVNVTMPSSIRSYPVIPVPSKSFGMLQKIPPPLFPHPYGFPAFGLCQKKDDGEVMGEPNKTNLSGVFWPSPKDSAYTSFPMFWPTTGSLAMPTYHHAQPKPPSDVLCARHNELDVSEQSDRSTSTPKDSLLDNERCSSTQSTRNEEDKSGDESRSIEGIPPTSRKISYISAFRPVVKDVESIAKLYGNRGPYSGPRSGYMSPDFLSESSSYRSVSPDVDSVDDPDVDVESHKAHEDEECLQLSVDDRRSPHSLTLAQSEGVKGQDQENTQMHTLNDLHSTNSSETRPSDMESHGNKHTTRFEVYARERDEHVHQMSTSYFGSATTYQRETSVKDVHEEEPSSTVEEMEPKNHQDENNISEERLKEPNDVCADEEAICKDTGNRGSLIEKNIESMAKEELQKQLVEQVELRKKLEREFQNLKDSFQDQMKRELSYREEMVQQLQIVREAHDALHHFSCKMLTPRHCTGTCTFKPPLLPP
binds: Lhx5 (zebrafish) | Lhx1a (zebrafish) | Lhx1b (zebrafish)
